# Paper PMC10719208
# Results are given in words; binding and its absence hold for the method and conditions named. Binding can be weak; no strength is given. For part of these data: In cells and extracts the contact can be indirect. For part of these data: Tags and fused reporters may be left off the sequences shown.
# What was measured:
# [1] = target: T1, WLP3 (chloroplast ribosomal protein L18), full-length coding region in pGBKT7 (rice) (UniProt Q8SAY0); assay: two-hybrid; WLP3 in pGBKT7 (bait), ribosomal proteins in pGADT7 (prey), yeast strain AH109; growth on triple and quadruple dropout plates (SD/-Leu/-Trp/-His/-Ade)
# T1 sequence: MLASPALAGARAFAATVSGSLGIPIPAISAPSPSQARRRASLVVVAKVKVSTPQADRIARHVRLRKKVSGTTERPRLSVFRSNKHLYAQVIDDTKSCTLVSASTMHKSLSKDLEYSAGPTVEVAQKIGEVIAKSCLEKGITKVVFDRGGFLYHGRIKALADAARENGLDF
# [2] = target: T2, WLP3-C (51-170aa) on nCFP (rice) (UniProt Q8SAY0); assay: split reporter; BiFC: WLP3 constructs on nCFP and ribosomal proteins on cCFP, transiently co-expressed in tobacco leaf epidermal cells by Agrobacterium EHA105; confocal imaging 24-48 h after co-transformation
# T2 sequence: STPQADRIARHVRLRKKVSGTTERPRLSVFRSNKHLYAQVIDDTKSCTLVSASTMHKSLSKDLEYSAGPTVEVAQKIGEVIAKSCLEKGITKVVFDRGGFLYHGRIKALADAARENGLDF
# WLP3-nCFP (rice) = target: T3, WLP3-nCFP (rice) (UniProt Q8SAY0); assay: as above
# T3 sequence: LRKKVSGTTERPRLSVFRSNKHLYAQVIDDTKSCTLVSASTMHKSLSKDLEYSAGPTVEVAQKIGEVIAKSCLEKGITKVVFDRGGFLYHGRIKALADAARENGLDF
Substance,binding [1],binding [2],binding (WLP3-nCFP (rice))
"ASL2 (PRPL21), full-length coding sequence in pGADT7 (rice)",binds,,
"RPL4, full-length coding sequence in pGADT7",binds,,
"RPL5, full-length coding sequence in pGADT7",binds,,
"RPL9, full-length coding sequence in pGADT7",binds weakly,,
"RPS6, full-length coding sequence in pGADT7",binds,,
"WGL2 (PRPS9), full-length coding sequence in pGADT7 (rice)",binds,,
cCFP-ASL2 (rice),,binds,binds
cCFP-RPL4,,binds,binds
cCFP-RPL5,,binds,binds
cCFP-RPL9,,binds,binds
cCFP-RPS6,,binds,binds
cCFP-WGL2 (rice),,binds,binds
